In the supplement of paper PMC4604168 (melanoma cell lines):
This is one part of the list. Many values rest on one well or one pass, so single values are uncertain.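 The apoptosis fraction was the count of cleaved-PARP antibody-stained nuclei relative to all DNA-stained nuclei, imaged in 1,536-well plates. Screening doses were set so most cells survived, and baseline and induced cleaved-PARP levels vary greatly across cell lines.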

Test system: SkMel5
Assay: cleaved PARP positive nuclei fraction relative to DMSO control; melanoma cells; higher = more apoptosis
Settings: library dose: low library concentration; 72 h

SMILES | cleaved PARP positive nuclei fraction
C[C@@H](N)c1ccc(C(=O)Nc2ccnc3[nH]ccc23)cc1 + Cc1cc([N+](=O)[O-])ccc1NS(=O)(=O)c1cc(Cl)ccc1Cl [FH535] (first compound 0.4 µM, partner dose 1 µM) | 84.5%
CS(=O)(=O)c1ccc(C(=O)Nc2ccc(Cl)c(-c3ccccn3)c2)c(Cl)c1 [vismodegib] + O=S(=O)(c1ccccc1)N(CC(F)(F)F)c1ccc(C(O)(C(F)(F)F)C(F)(F)F)cc1 [T0901317] (first compound 1 µM, partner dose 1.4 µM) | 79.1%
CCN(CC)CCNC(=O)c1c(C)[nH]c(/C=C2\C(=O)Nc3ccc(F)cc32)c1C [sunitinib] + COc1cc(N2CCC(N3CCN(C)CC3)CC2)ccc1Nc1ncc(Cl)c(Nc2ccccc2S(=O)(=O)C(C)C)n1 [NVP-TAE684] (first compound 0.4 µM, partner dose 0.08 µM) | 85.3%
CC1(C)CCC(c2ccc(Cl)cc2)=C(CN2CCN(c3ccc(C(=O)NS(=O)(=O)c4ccc(N[C@H](CCN5CCOCC5)CSc5ccccc5)c(S(=O)(=O)C(F)(F)F)c4)cc3)CC2)C1 + CC(C)CCN1c2nc(Nc3cc(F)c(O)c(F)c3)ncc2N(C)C(=O)C1C [BID1870] (first compound 0.4 µM, partner dose 0.2 µM) | 980%
C[C@@H](N)c1ccc(C(=O)Nc2ccnc3[nH]ccc23)cc1 + CN(NC(=O)CC(=O)NN(C)C(=S)c1ccccc1)C(=S)c1ccccc1 [STA4783] (first compound 0.4 µM, partner dose 0.006 µM) | 101%
NC1(c2ccc(-c3nc4ccn5c(=O)[nH]nc5c4cc3-c3ccccc3)cc2)CCC1 + COc1cc(N2CCC(N3CCN(C)CC3)CC2)ccc1Nc1ncc(Cl)c(Nc2ccccc2S(=O)(=O)C(C)C)n1 [NVP-TAE684] (first compound 0.4 µM, partner dose 0.08 µM) | 70.3%
NC(=O)c1ccc(N(C(N)=O)c2c(F)cccc2F)nc1-c1ccc(F)cc1F + CCCCCCCCCCCC1=C(O)C(=O)C=C(O)C1=O [Embelin] (first compound 0.4 µM, partner dose 1.2 µM) | 147%
CS(=O)(=O)c1ccc(C(=O)Nc2ccc(Cl)c(-c3ccccn3)c2)c(Cl)c1 [vismodegib] + NCC(=O)Nc1ccc(-n2nc(C(F)(F)F)cc2-c2ccc3c(ccc4ccccc43)c2)cc1 [OSU03012] (first compound 1 µM, partner dose 1 µM) | 102%
NC1(c2ccc(-c3nc4ccn5c(=O)[nH]nc5c4cc3-c3ccccc3)cc2)CCC1 + O=S(=O)(c1ccccc1)N(CC(F)(F)F)c1ccc(C(O)(C(F)(F)F)C(F)(F)F)cc1 [T0901317] (first compound 0.4 µM, partner dose 1.4 µM) | 77.7%
NC(=O)c1ccc(N(C(N)=O)c2c(F)cccc2F)nc1-c1ccc(F)cc1F + CC(C)(C)c1cnc(CSc2cnc(NC(=O)C3CCNCC3)s2)o1 [SNS-032] (first compound 0.4 µM, partner dose 0.01 µM) | 38.7%
NC(=O)c1ccc(N(C(N)=O)c2c(F)cccc2F)nc1-c1ccc(F)cc1F + CO[C@@H]1[C@H](N(C)C(=O)c2ccccc2)C[C@H]2O[C@]1(C)n1c3ccccc3c3c4c(c5c6ccccc6n2c5c31)C(=O)NC4 [Midostaurin] (first compound 0.4 µM, partner dose 0.08 µM) | 79.3%
Cn1cnc2c(F)c(Nc3ccc(Br)cc3Cl)c(C(=O)NOCCO)cc21 [selumetinib] + COc1cc2c(Oc3ccc4[nH]c(C)cc4c3F)ncnc2cc1OCCCN1CCCC1 [cediranib] (first compound 0.015 µM, partner dose 0.4 µM) | 61.4%
C[C@]1(O)C[C@@H](c2nc(-c3ccc4ccc(-c5ccccc5)nc4c3)c3c(N)nccn32)C1 + c1cc(-c2cnn3cc(-c4ccc(OCCN5CCCCC5)cc4)cnc23)ccn1 [Dorsomorphin] (first compound 0.4 µM, partner dose 0.4 µM) | 361%
CC1(C)CCC(c2ccc(Cl)cc2)=C(CN2CCN(c3ccc(C(=O)NS(=O)(=O)c4ccc(N[C@H](CCN5CCOCC5)CSc5ccccc5)c(S(=O)(=O)C(F)(F)F)c4)cc3)CC2)C1 + NCC(=O)Nc1ccc(-n2nc(C(F)(F)F)cc2-c2ccc3c(ccc4ccccc43)c2)cc1 [OSU03012] (first compound 0.4 µM, partner dose 1 µM) | 842%

2 entries picked at random from those above, as already listed:
SMILES | cleaved PARP positive nuclei fraction
NC1(c2ccc(-c3nc4ccn5c(=O)[nH]nc5c4cc3-c3ccccc3)cc2)CCC1 + O=S(=O)(c1ccccc1)N(CC(F)(F)F)c1ccc(C(O)(C(F)(F)F)C(F)(F)F)cc1 [T0901317] (first compound 0.4 µM, partner dose 1.4 µM) | 77.7%
CC1(C)CCC(c2ccc(Cl)cc2)=C(CN2CCN(c3ccc(C(=O)NS(=O)(=O)c4ccc(N[C@H](CCN5CCOCC5)CSc5ccccc5)c(S(=O)(=O)C(F)(F)F)c4)cc3)CC2)C1 + NCC(=O)Nc1ccc(-n2nc(C(F)(F)F)cc2-c2ccc3c(ccc4ccccc43)c2)cc1 [OSU03012] (first compound 0.4 µM, partner dose 1 µM) | 842%
